Data on two substances can be found in publication doi:10.1101/2024.02.12.579870.

Chains of the proteins cited; added tags and fusions are not shown. Lines headed by an entry give the natural chain unless they say otherwise; changes in a name come on top.
UniProt O43681: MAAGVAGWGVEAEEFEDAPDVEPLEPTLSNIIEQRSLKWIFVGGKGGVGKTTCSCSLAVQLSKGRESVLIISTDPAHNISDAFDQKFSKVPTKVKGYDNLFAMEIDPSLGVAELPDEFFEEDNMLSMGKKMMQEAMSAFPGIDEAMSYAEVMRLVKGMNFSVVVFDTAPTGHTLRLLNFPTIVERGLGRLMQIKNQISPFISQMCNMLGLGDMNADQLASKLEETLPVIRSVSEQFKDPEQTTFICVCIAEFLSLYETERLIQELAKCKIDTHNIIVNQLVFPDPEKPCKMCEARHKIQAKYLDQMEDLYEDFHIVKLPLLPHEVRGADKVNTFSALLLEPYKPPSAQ
UniProt Q9HD20: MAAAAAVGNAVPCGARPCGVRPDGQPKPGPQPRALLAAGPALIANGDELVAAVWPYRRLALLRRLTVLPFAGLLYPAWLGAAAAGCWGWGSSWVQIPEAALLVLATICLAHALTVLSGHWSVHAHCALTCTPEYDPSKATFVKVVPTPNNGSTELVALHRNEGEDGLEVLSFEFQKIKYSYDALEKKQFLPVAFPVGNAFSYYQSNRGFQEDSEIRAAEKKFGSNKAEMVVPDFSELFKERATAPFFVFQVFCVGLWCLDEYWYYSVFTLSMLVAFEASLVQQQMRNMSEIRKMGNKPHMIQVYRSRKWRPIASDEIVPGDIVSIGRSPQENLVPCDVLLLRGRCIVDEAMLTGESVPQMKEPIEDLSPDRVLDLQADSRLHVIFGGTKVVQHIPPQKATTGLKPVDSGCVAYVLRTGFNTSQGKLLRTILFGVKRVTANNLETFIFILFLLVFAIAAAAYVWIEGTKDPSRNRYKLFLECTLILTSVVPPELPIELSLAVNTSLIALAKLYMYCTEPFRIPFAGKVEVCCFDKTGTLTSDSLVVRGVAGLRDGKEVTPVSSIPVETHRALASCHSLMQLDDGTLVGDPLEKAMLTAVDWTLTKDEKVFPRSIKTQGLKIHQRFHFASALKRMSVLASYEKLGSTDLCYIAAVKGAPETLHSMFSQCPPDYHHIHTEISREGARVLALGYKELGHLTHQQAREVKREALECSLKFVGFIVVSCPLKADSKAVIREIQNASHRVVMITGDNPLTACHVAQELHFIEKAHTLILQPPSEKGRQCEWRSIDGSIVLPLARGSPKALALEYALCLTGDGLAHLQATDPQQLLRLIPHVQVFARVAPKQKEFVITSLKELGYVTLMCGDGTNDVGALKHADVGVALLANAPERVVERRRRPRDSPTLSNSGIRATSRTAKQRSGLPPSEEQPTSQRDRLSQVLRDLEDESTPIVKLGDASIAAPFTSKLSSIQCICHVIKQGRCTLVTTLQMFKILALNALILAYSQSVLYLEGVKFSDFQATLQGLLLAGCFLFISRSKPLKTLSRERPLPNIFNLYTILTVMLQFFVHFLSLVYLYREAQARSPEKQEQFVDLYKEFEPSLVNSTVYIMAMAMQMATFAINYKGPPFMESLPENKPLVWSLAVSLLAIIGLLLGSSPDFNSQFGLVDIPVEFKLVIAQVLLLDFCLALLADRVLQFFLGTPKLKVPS

The assay has as its target GET3 (human (endogenous in HEK293FT)) (UniProt O43681). Nature of the assay: co-IP.

No constants are given. Whether binding was seen depends on the method and setting. In cells and extracts the contact can be indirect. Some entries that bind do so weakly or less than the wild type.

As to “ATP13A1(D533N) (from UniProt Q9HD20 1-1204) (enzyme)”, the binding result is reported as “binds”.

“ATP13A1 (wild type, expressed from a plasmid) (from UniProt Q9HD20 1-1204) (enzyme)”: the binding entry is “binds”.
